Assay results: patent US20240000932A1 (BOOSTIMMUNE, published 2024)
These are yes or no findings as the source states them, for the method shown. Some results given as binding are weak or reduced against the parent protein; the word gives no strength.

T1: TCTP (as used in the immunoblotting and immunoprecipitation screen of Example 2-1) (UniProt P13693)
T1 sequence (looked up): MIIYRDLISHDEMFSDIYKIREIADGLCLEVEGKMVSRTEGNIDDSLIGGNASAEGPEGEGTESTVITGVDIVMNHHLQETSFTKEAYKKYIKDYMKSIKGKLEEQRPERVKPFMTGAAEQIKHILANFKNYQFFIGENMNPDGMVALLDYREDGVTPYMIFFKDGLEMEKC

B1: anti-TCTP mouse monoclonal antibody 44E1 (antibody, V domains shown)
VH: EVQLQQSDAELVKPGASVKISCKASGYTFTDHAIHWAKQKPEQGLEWIGYISPGNGDLKYNEKFKGKATLTTDKSSSTAYMQLNSLTSEDSAVYFCKSGWTLWGQGTTLTVSS
VL: DIVMSQSPSSPVVSVGEKVTMSCKSSQSLLYRSNQKNYLVWYQLKPGQSPKLLIYWAFTRESGVPDRFTGSGSGTDFTLTISSVKAEDLAVYYCQQHYSYPWTFGGGTKLEVKR
B2: anti-TCTP mouse monoclonal antibody 55F3 (antibody, V domains shown)
VH: DVQLQESGPGLVKPSQSLSLTCTATGYSIASDYAWNWIRQFPGNKLEWMGYINYSGSTGYNPSLKSRISITRDTSKNQFFLQLNSVTTEDTATYYCARFEAGYWGQGTTLTVSS
VL: DIKMTQSPSSMSASLGERVTITCKASQDINRYLSWFQQKPGKSPKTLIYRANRLVDGVPSRFSGSGSGQDYSLTISSLEYGDMGIYYCLQYNEFPLTFGAGTKLELKR
B3: anti-TCTP mouse monoclonal antibody 51A9 (antibody, V domains shown)
VH: DVQLQESGPGLVKPSQSLSLTCTATGYSITSDYAWNWIRQFPGNKLEWMGYINYSGSTGYNPSLKSRISITRDTSKNKFFLQLNSVTTEDTATYYCARFEAGYWGQGTTLTVSS
VL: DIKMTQSPSSMYASLGERVTFTCKASQDINSYLSWFQQKPGKSPKTLIYRANRLVDGVPSRFSGSGSGQDYSLTISSLDYEDMGIYYCLQYYEFPLTFGAGTKLELKR

Each binder was assayed against T1, TCTP (as used in the immunoblotting and immunoprecipitation screen of Example 2-1) (assay: immunoblotting and immunoprecipitation screen of hybridoma antibodies).

binding, binds:
B1
B2
B3
